# Several values for one entry are separate records, joined by “and”; a condition that tells them apart may be missing. Identical values can stand only once. The whole screen tested about 280,000 compounds, of which about 180 (0.064%) were called active. This list was built around the results that the source calls inconclusive (neither active nor inactive); the mix of calls is not that of the screen. Calls follow the shape of the dose curve; as a rule, active = well fitted inhibition curve with a large enough effect; inconclusive = small, poorly fitted or top-dose-only effect, or effect the other way; inactive = flat fitted curve, though single readings scatter. A potency beside an inconclusive call is a rough fit, not a confirmed value.
# Amino acid sequences for entries named in this document (tags omitted). A change or cut given only in a name is not applied to a line headed by its entry.
# UniProt P10828: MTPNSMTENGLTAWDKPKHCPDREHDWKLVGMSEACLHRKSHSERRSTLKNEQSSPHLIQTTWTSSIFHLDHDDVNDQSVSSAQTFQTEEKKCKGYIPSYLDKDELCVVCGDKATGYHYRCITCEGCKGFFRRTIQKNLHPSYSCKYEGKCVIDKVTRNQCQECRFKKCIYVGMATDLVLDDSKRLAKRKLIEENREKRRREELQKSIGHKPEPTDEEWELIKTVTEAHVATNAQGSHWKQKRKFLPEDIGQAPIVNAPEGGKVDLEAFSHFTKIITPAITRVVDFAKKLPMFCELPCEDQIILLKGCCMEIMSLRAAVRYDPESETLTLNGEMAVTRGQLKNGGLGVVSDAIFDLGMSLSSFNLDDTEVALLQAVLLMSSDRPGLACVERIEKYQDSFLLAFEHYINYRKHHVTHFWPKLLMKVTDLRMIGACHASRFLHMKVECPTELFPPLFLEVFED
# Molecular target: Thyroid hormone receptor beta (Homo sapiens) (UniProt P10828)
# Assay: qHTS for Inhibitors of the Interaction of Thyroid Hormone Receptor and Steroid Receptor Coregulator 2; also: nearly all actives have a fitted effect of over 50% in size;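 as to activity change, negative = inhibition: plate controls were bound peptide for no effect and peptide without receptor for full effect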
# Details: TRbeta-SRC2 peptide binding, fluorescence polarization, receptor liganded with 1 µM T3; series mostly up to 106 µM; activity change, negative = inhibition: at the top concentration
# In short: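 Decrease in fluorescence polarization of 20 nM Texas Red SRC2 coactivator peptide flagged inhibition of its binding to 0.6 uM TRb LBD; 1 uM T3 included, incubation 5 hr, ex 555/em 632 nm.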
# Potency is read from the fitted curve at half-maximal effect.
SMILES,Potency,"activity change, negative = inhibition"
CCOC(=O)/C=C/C(=O)Nc1ccc(Oc2ccccc2)cc1,"inconclusive: 44.7 µM [inhibitor, partial curve]",–
CN1CCc2c(cc(O)c(O)c2Cl)C(c2cccc(Cl)c2)C1 (configuration not stated),–,inactive: 1.61%
C=CCSc1nnc2n(-c3ccccc3OC)c(=O)c3c4c(sc3n12)CCC4,"inconclusive: 8.91 µM [inhibitor, full curve]",–
Nc1ccc(OC(=O)Nc2ccc(O)cc2)cc1,"inconclusive: 39.8 µM [inhibitor, partial curve]",–
Cc1nnc(SCC(=O)N2CCC(Cc3ccccc3)CC2)n(N)c1=O,"inconclusive: 89.1 µM [inhibitor, partial curve, poor fit]",–
C=CC(C1=CC(=O)C(OC)=CC1=O)c1ccc(OC)cc1 (configuration not stated),–,inactive: 3.76%
CCOc1ccc2c(c1)C(C)=CC(C)(C)N2C(=O)Nc1ccccc1,"inconclusive: 70.8 µM [inhibitor, single point]",–
CC(C)C(CCNC(=O)CC(Cc1ccccc1)c1ccco1)c1ccco1 (configuration not stated),"inconclusive: 35.5 µM [inhibitor, partial curve]",–
O=C(CCc1ccc(O)cc1)c1c(O)cc(O)cc1O,"inconclusive: 44.7 µM [activator, partial curve]",–
O=C(N/N=C/c1ccc(-c2ccccc2)o1)c1ccccc1O,–,inactive: 1.46%
Brc1ccc(-c2ccc(/C=N/Nc3nc4ccccc4[nH]3)o2)cc1,–,inactive: -21.8% [at 53 µM]
Cc1cccc(N=Cc2cc3c(cc2[N+](=O)[O-])OCO3)c1,"inconclusive: 35.5 µM [inhibitor, partial curve]",–
Oc1c(Cl)cc(Cl)c(Cl)c1Cc1c(O)c(Cl)cc(Cl)c1Cl,"inconclusive: 100 µM [activator, partial curve]",–
CCOc1cccc2c1OC(c1cc(OC)c(OC)c(OC)c1)N1N=C(c3ccc(C)o3)CC21 (configuration not stated),"inconclusive: 35.5 µM [activator, partial curve]",–
O=C(Cn1ncc2c3ccccc3n(Cc3cccc(Cl)c3)c2c1=O)NC1CCCCCC1,–,inactive: -0.383%
CCCc1cc(NCCCn2ccnc2)n2nc(C)c(-c3ccccc3)c2n1,"inconclusive: 17.8 µM [inhibitor, full curve, poor fit]",–
CCCOc1ccc(-c2nn(-c3ccccc3)cc2/C=C2\SC(N)=NC2=O)cc1,–,inactive: -3.76% [at 53 µM]
COc1cc(C)c2c(c1C=O)Oc1c(c(C)c(O)c3c1C(O)OC3=O)OC2=O (configuration not stated),"inconclusive: 14.1 µM [activator, partial curve] and inconclusive: 44.7 µM [activator, partial curve]",–
Cc1ccccc1NCC(=O)N=Nc1c(O)[nH]c2ccc([N+](=O)[O-])cc12,–,inactive: 6.85%
COc1ccc2c(c1)Cc1sc(NC(=O)c3cccs3)nc1-2,"inconclusive: 20 µM [inhibitor, full curve]",–
O=S(=O)(Nc1c(S(=O)(=O)c2ccccc2)c2nc3ccccc3nc2n1C1CCCCC1)c1ccccc1,"inconclusive: 22.4 µM [inhibitor, full curve]",–
O=C(c1ccc(F)cc1)N1CCN(CCc2ccncc2)CC1,–,inactive: 6.82%
Cc1c(NC(=O)CSc2n[nH]c(-c3ccccc3)n2)c(=O)n(-c2ccccc2)n1C,–,inactive: 3.3%

SMILES,Potency,"activity change, negative = inhibition"
COc1ccccc1NC(=O)CCNS(=O)(=O)c1ccc2c(c1)CCN2C(=O)C1CC1,"inconclusive: 63.1 µM [inhibitor, partial curve, poor fit]",–
Cc1ccc(C)c(NC(=O)C(=O)NCCc2c[nH]c3ccccc23)c1,–,inactive: -5.13%
Cc1cccc(-n2cnc3c(c2=O)c2nc4ccccc4nc2n3Cc2ccco2)c1,–,inactive: 1.83%
O=P(O)(O)CP(=O)(O)O,"inconclusive: 70.8 µM [inhibitor, single point]",–
CCSC1=N/C(=C\c2ccc(-c3ccccc3[N+](=O)[O-])o2)C(=O)S1,"inconclusive: 70.8 µM [inhibitor, single point]",–
CCOC(=O)N1CCC(NC2CCCCCCC2)CC1,"inconclusive: 100 µM [inhibitor, partial curve, poor fit]",–
Nc1ccc(N)c(Cl)c1,"inconclusive: 20 µM [inhibitor, full curve]",–
CC(C)c1ccc(N(CC(=O)N/N=C/c2ccc(OC3CSC3)cc2)S(=O)(=O)c2ccccc2)cc1,"inconclusive: 35.5 µM [inhibitor, single point]",–
CCn1c(CSc2nnc(-c3cccnc3)n2-c2ccccc2C)nc2cc(C(=O)O)ccc21,active: 11.2 µM,–
Cc1ccc2[nH]c(C)c(CC(=O)O)c2c1,–,inactive: 2.81%
CCn1c(CSc2ncn[nH]2)nc2cc(C(=O)O)ccc21,"inconclusive: 14.1 µM [inhibitor, full curve]",–
COc1ccc(OC)c(/C=C2\S/C(=N/NC(=O)c3ccc4ccccc4c3)NC2=O)c1,"inconclusive: 70.8 µM [inhibitor, single point]",–
CCCn1cc(S(=O)(=O)c2cc(C)ccc2C)c(=O)c2cc(F)c(N3CCOCC3)cc21,"inconclusive: 56.2 µM [inhibitor, partial curve]",–
CNc1cc([N+](=O)[O-])ccc1N/C=C/C(=O)c1ccc2c(c1)OCO2,–,inactive: -1.45%
O=C1C(Nc2ccc(O)cc2)=C/C(=N/S(=O)(=O)c2cccs2)c2ccccc21,"inconclusive: 50.1 µM [inhibitor, single point]",–
CC(NC(=O)Cn1ncc(Cl)c(Cl)c1=O)C12CC3CC(CC(C3)C1)C2 (configuration not stated),"inconclusive: 1.58 µM [inhibitor, partial curve, poor fit]",–
S=C(Nc1ccc2nc(-c3ccccn3)c(-c3ccccn3)nc2c1)N1CCOCC1,"inconclusive: 31.6 µM [inhibitor, full curve, poor fit]",–
COc1cc(/C=N/NC(=O)COc2c(C)cc([N+](=O)[O-])cc2C)ccc1OC(=O)c1ccccc1,–,inactive: 1.51%
COc1ccc2c(c1)[nH]c1c(N3CCN(Cc4ccc5c(c4)OCO5)CC3)ncnc12,"inconclusive: 28.2 µM [inhibitor, single point]",–
O=C(N/N=C/c1cccc(OC(=O)c2ccc3c(c2)OCO3)c1)c1cncc(Br)c1,"inconclusive: 50.1 µM [activator, single point]",–
CCOc1ccc(N(CC)S(=O)(=O)N2CCCC(C(=O)Nc3ccc(OC)c(OC)c3)C2)cc1 (configuration not stated),–,inactive: 3.08%
COc1cccc2c1C(=O)c1c(O)c3c(c(O)c1C2=O)C[C@@](O)(C(=O)CO)C[C@@H]3O[C@H]1C[C@H](N)[C@H](O)[C@H](C)O1,active: 15.8 µM and active: 22.4 µM,–
Cc1ccccc1OC1C=CC(C#Cc2ccc(Br)cc2)OC1CO (configuration not stated),–,inactive: 7.27% [at 11.2 µM]

SMILES,Potency,"activity change, negative = inhibition"
O=C(CSc1nc2ccccc2n1S(=O)(=O)c1cccc([N+](=O)[O-])c1)NCCc1ccccc1,–,inactive: -8.61%
COc1ccc(-c2cc(OC(=O)c3ccc(F)cc3)c3c(C)oc(C)c3c(=O)c2)cc1OC,–,inactive: -6.21%
CN(C)c1cc(Cl)c2nonc2c1N,"inconclusive: 11.2 µM [inhibitor, full curve]",–
Cc1cccc(C(=O)NCC(=O)OCC(=O)N2CCc3ccccc32)c1,"inconclusive: 79.4 µM [inhibitor, single point]",–
CC(C)c1ccc(NC(=O)c2cnn3c(C(F)F)cc(-c4ccccc4)nc23)cc1,–,inactive: -3.31%
CCc1ccc(S(=O)(=O)N2CCN(c3ccc(Cl)c(Cl)c3)CC2)cc1,"inconclusive: 5.01 µM [inhibitor, full curve, poor fit]",–
CC1=CC(=Nc2c(C)n(C)n(-c3ccccc3)c2=O)C=CC1=O,"inconclusive: 15.8 µM [inhibitor, partial curve, poor fit]",–
O=C1CCCC(O)=C1N=Nc1c(Cl)cc(Cl)cc1Cl,active: 28.2 µM,–
Cc1ccccc1CS(=O)(=O)c1nnc([C@H](Cc2ccccc2)NC(=O)OC(C)(C)C)o1,"inconclusive: 56.2 µM [inhibitor, partial curve]",–
O=Cc1cc(N=Nc2ccccc2Cl)ccc1O,–,inactive: 8.06%
CC(C)C(C(=O)Nc1nccs1)c1ccccc1 (configuration not stated),–,inactive: -13.3%
CO[C@H]1C=CO[C@@]2(C)Oc3c(C)c(O)c4c(O)c(c5c(nc6cc(C)ccn65)c4c3C2=O)NC(=O)C(C)=CC=C[C@H](C)[C@H](O)[C@@H](C)[C@@H](O)[C@@H](C)[C@H](OC(C)=O)[C@@H]1C,"inconclusive: 79.4 µM [inhibitor, single point]",–
Oc1c(C=Nc2cccc3nsnc23)ccc2ccccc12,"inconclusive: 6.31 µM [inhibitor, full curve]",–
Cc1nn(C)c(C)c1N1C(=O)c2cccc3c(Br)ccc(c23)C1=O,"inconclusive: 20 µM [inhibitor, full curve, poor fit]",–
Cc1cc2c(NC(=O)Nc3ccccc3)cccc2nn1,"inconclusive: 3.55 µM [inhibitor, full curve]",–
CCC(CNc1cc(OC)cc2cccnc12)NC1CCCCC1 (configuration not stated),"inconclusive: 11.2 µM [inhibitor, full curve]",–
CCc1ccc(-n2nc3ccc(NC(=O)c4ccc(C#N)cc4F)cc3n2)cc1,"inconclusive: 70.8 µM [inhibitor, single point]",–
CC(C)N(C(=O)Nc1ccc2nsnc2c1)C(C)C,–,inactive: -0.0079%
C=Cc1c(C)c2cc3[nH]c(cc4nc(cc5nc(cc1[nH]2)C(C)=C5CCC(=O)O)C(CCC(=O)O)=C4C)c(C)c3C=C,active: 14.1 µM and active: 35.5 µM and active: 17.8 µM,–
COC(=O)c1ccc(-c2csc(NC(=O)c3ccc(S(=O)(=O)N4CCc5ccccc5C4)cc3)n2)cc1,–,inactive: -6.54%
COc1ccc(NC(=O)CN2CCCN(S(=O)(=O)c3ccc(F)cc3)CC2)cc1,"inconclusive: 70.8 µM [inhibitor, single point]",–

# — PubChem BioAssay AID1469 (National Center for Advancing Translational Sciences (NCATS), 2008)
